{"source": "patent US7846710B2", "about": "(The Penn State Research Foundation, priority 1998, dated 2010)", "assay": "general procedure: peptide synthesis; EDC / N-hydroxysuccinimide", "conditions": "cyclisation step, on linear precursor"}
{"substance": "cyclo(SGGYLPPL)", "values": [{"measurement": "cyclisation yield", "result": 80, "unit": "%"}]}
